Measured values: PubChem BioAssay AID540276 (National Center for Advancing Translational Sciences (NCATS), 2011)
Several values for one entry are separate records, joined by “and”; a condition that tells them apart may be missing. Equal values may be shown once. About 5,400 (1.8%) of roughly 300,000 compounds were called active. Inconclusive means that the source gave no clear call. Such entries were picked first, then a sample of the others. Calls come from the whole dose curve; tested in HEK293 cells. A potency beside an inconclusive call is a rough fit, not a confirmed value.

Assay: qHTS for inhibitors of binding or entry into cells for Marburg Virus
Settings: Marburg virus pseudotyped entry inhibition, cell reporter; activity change, negative = inhibition: at 37.8 µM (top of the series) unless noted
% is set by controls: 0 for no effect and ±100 for the full control effect; potency is the fitted concentration of half-maximal effect.

SMILES | Potency | activity change, negative = inhibition
CCN(CC)S(=O)(=O)c1ccc(N2CCN(c3ccccc3OC)CC2)c(N)c1 | inconclusive: 35.5 µM [inhibitor, single point] | 
Cc1ccc(N(CC(=O)Nc2ccc(-c3nc4ccc(C)cc4s3)cc2)S(C)(=O)=O)cc1 | inconclusive: 2.51 µM [activator, partial curve, poor fit] | 
Cc1nn2c(-c3cccc(NC(=O)c4ccccc4)c3)nnc2c2ccccc12 | inconclusive: 5.62 µM [activator, single point] | 
CCOc1ccccc1NC(=O)Cn1nnc(C(=O)Nc2ccc(C)cc2)c1N |  | inactive: -2.66% [at 46.1 µM]
N/C(=N\OC(=O)COc1ccc(Br)cc1)c1cccnc1 |  | inactive: 3.73%
COc1ccc(CC(=O)NCC2(c3ccc(OC)c(OC)c3)CCCC2)cc1 | inconclusive: 39.8 µM [inhibitor, partial curve, poor fit] | 
O=C1S/C(=C\c2ccc(N3CCOCC3)o2)C(=O)N1c1ccccc1 | inconclusive: 35.5 µM [inhibitor, single point] | 
CCOC(=O)c1[nH]c(C)c(C(=O)OCC(=O)N2CC(=O)Nc3ccccc32)c1C | inconclusive: 5.62 µM [activator, single point] | 
CCN(CC)S(=O)(=O)c1ccc(N2CCOCC2)c(NS(=O)(=O)c2ccc(C(C)C)cc2)c1 |  | inactive: -1.66%
Cc1cc(C(=O)NCc2cc(F)cc3c2OCOC3)nn1C |  | inactive: 15% [at 46.1 µM]
Cn1ccnc1C1CCCCN1Cc1nc(Cc2ccccc2F)no1 (stereo not drawn) | inconclusive: 0.316 µM [inhibitor, full curve, poor fit] | 
Cc1ccc(C(=O)NNC(=O)c2cccc(C)c2)cc1 | inconclusive: 6.31 µM [activator, full curve, poor fit] | 
CCN(C(=O)C1CCC(CNS(=O)(=O)c2cccc3nsnc23)CC1)c1ccc(C)c(C)c1 (stereo not drawn) | inconclusive: 25.1 µM [inhibitor, single point] | 
CCCCc1nnc2c(N(C)S(=O)(=O)c3ccccc3)nc3ccccc3n12 | inconclusive: 6.31 µM [inhibitor, single point] | 
ON(CCc1ccccn1)Cc1ccccc1 |  | inactive: 28.1%
CC1=CC(C)(C)N(S(=O)(=O)c2ccc(F)cc2)c2ccccc21 | inconclusive: 7.3 µM [inhibitor, partial curve, poor fit] | 
COc1ccc(NC(=O)CSc2nnc(-c3ccccc3Cl)n2Cc2ccco2)c(OC)c1 | inconclusive: 11.2 µM [inhibitor, single point] | 
CCOc1ccc(NC(=O)CN(C)C(=O)c2cc([N+](=O)[O-])ccc2Sc2ccccc2)cc1OCC | inconclusive: 14.1 µM [inhibitor, partial curve, poor fit] | 
O=C(/C=C/c1ccccc1)NNc1ccc(Cl)cc1 |  | inactive: -23.1% [at 46.1 µM]
O=C(Nc1ccc2c(c1)OCO2)C1CCN(C(=O)c2ccc(Br)cc2)CC1 | inconclusive: 2.82 µM [activator, partial curve, poor fit] | 
COc1ccc(NC(=O)Nc2nnc(C)s2)cc1 |  | inactive: 19.8% [at 46.1 µM]
OC(COCCC12CC3CC(CC(C3)C1)C2)CN1CCCCC1 (stereo not drawn) | active: 2.91 µM | 

SMILES | Potency | activity change, negative = inhibition
NC(=O)c1ccccc1NC(=O)Nc1cccc(Cl)c1Cl | inconclusive: 29.1 µM [activator, partial curve, poor fit] | 
CCOC(=O)/C(C#N)=C1/C(=O)N(Cc2ccccc2)c2ccccc21 | inconclusive: 35.5 µM [inhibitor, partial curve, poor fit] | 
O=C(NCCc1ccccc1)c1nc2nc(-c3cccs3)cc(C(F)(F)F)n2n1 | inconclusive: 2.31 µM [inhibitor, single point] | 
O=C(O)c1ccc(C(=O)C(=O)c2ccccc2)cc1 |  | inactive: 17.9% [at 46.1 µM]
COc1cccc(C(=O)NC2=NCCS2)c1OC | inconclusive: 0.164 µM [activator, partial curve, poor fit] | 
Nc1nc(SCc2ccc([N+](=O)[O-])cc2)c2ncn([C@@H]3O[C@H](CO)[C@@H](O)[C@H]3O)c2n1 |  | inactive: 20.3%
COc1ccc(S(=O)(=O)N2CCCC(C(=O)NCCN3CCOCC3)C2)cc1C (stereo not drawn) | inconclusive: 5.62 µM [activator, single point] | 
Cc1noc(C)c1COc1cccc(C(=O)Nc2ccc(Br)cc2F)c1 | inconclusive: 1.12 µM [inhibitor, full curve, poor fit] | 
O=C(Nc1ccc(N2CCN(C(=O)c3ccco3)CC2)c(Cl)c1)c1cccnc1 |  | inactive: 8.96% [at 46.1 µM]
N#CC1=C(N)N(c2ccccc2)C2=C(C(=O)CCC2)C1c1ccsc1 (stereo not drawn) | inconclusive: 23.1 µM [activator, single point] | 
CN(C)C(CNc1ncccn1)c1ccccc1 (stereo not drawn) | inconclusive: 17.8 µM [activator, single point] | 
O=[N+]([O-])c1ccc2nc(C3CCCCC3)[nH]c2c1 | inconclusive: 5.62 µM [activator, single point] | 
O=C(NCCNS(=O)(=O)c1ccccc1Cl)c1cc(OCC(F)(F)F)ccc1OCC(F)(F)F |  | inactive: -0.675%
CCc1ccccc1N(C(=O)c1snc(C(N)=O)c1N)C(C(=O)NCC1CCCO1)c1ccc(C)o1 (stereo not drawn) | inconclusive: 35.5 µM [inhibitor, single point] | 
CC(=O)Nc1cc(OC(C)=O)c2nonc2c1OC(C)=O | inactive and inconclusive: 14.6 µM [inhibitor, partial curve] | 
COc1ccc(CCN2CCC(Nc3nc4ccccc4n3Cc3ccc(F)cc3)CC2)cc1 | active: 4.11 µM | 
O=C(COc1ccccc1)NC(=S)Nc1cccc([N+](=O)[O-])c1 |  | inactive: 12.6%
C/C(=N\NC(=S)NC(C)C)c1ccc2c(c1)OCCO2 | inconclusive: 3.16 µM [activator, partial curve, poor fit] | 
Cc1ccccc1NC(=O)CSc1ccc(-c2ccco2)nn1 | inconclusive: 5.62 µM [activator, single point] | 
O=C1NC(=O)N(CCc2ccc(F)cc2)C(=O)/C1=C/c1ccco1 |  | inactive: 22.4% [at 46.1 µM]
COc1ccc(Cl)cc1NC(=O)c1cccc([N+](=O)[O-])c1O | inconclusive: 14.1 µM [inhibitor, single point] | 

Of the compounds above, 2 contain an NH in an aromatic ring.
SMILES | Potency | activity change, negative = inhibition
CCOC(=O)c1[nH]c(C)c(C(=O)OCC(=O)N2CC(=O)Nc3ccccc32)c1C | inconclusive: 5.62 µM [activator, single point] | 
O=[N+]([O-])c1ccc2nc(C3CCCCC3)[nH]c2c1 | inconclusive: 5.62 µM [activator, single point] | 
